Data as given in PubChem BioAssay AID504774 (Drosophila RNAi Screening Center, 2011).

- Assay: 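Genes required for cells to withstand methyl methanesulphonate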 (primary screen)
- Cells: Drosophila Kc167 cells
- Knock-down reagent: long dsRNA against Drosophila genes, about 0.25 µg dsRNA per well
- Time to read-out: about 6 days: 3 days knock-down, then 3 days with or without MMS
- Treatment: methyl methanesulphonate 0.004% (w/v) for 3 days after knock-down
- Detection: 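ATP-dependent luminescence as a measure of live cells in MMS-exposed wells, quantile normalised within each plate, with replicate values also given as a mean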
- Reading the numbers: mean viability with MMS and viability with MMS: higher = more surviving cells after MMS
The deposit covers about 23,000 reagents; below is a random part of those with a known target gene and a result. 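Values are quantile-normalised luminescence on an arbitrary scale; higher means more cells surviving MMS.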 Names joined by + are all predicted targets of the reagent.

target,dsRNA,mean viability with MMS,"viability with MMS, replicate 1","viability with MMS, replicate 2"
CG11069,DRSC14289,3.53e6,4.09e6,3.92e6
CG13494,DRSC04139,3.62e6,4.06e6,4.15e6
CycD,DRSC20233,3.53e6,4.05e6,3.98e6
myd,DRSC14762,3.21e6,3.66e6,3.71e6
myd,DRSC15512,3.55e6,4.09e6,3.96e6
CG34221,DRSC06150,3.51e6,4.02e6,3.96e6
Ids,DRSC08222,3.58e6,4.03e6,4.07e6
e(y)2,DRSC19640,3.52e6,3.97e6,4.01e6
Tim8,DRSC20291,3.63e6,3.99e6,4.21e6
PNUTS,DRSC00638,3.45e6,3.69e6,4.05e6
PNUTS,DRSC22136,3.52e6,3.97e6,4.02e6
CG14488,DRSC06460,3.55e6,4.03e6,4.02e6
v,DRSC20383,3.66e6,4.37e6,4.16e6
ocn,DRSC17020,3.55e6,3.93e6,4.12e6
CG18210 (retired record),DRSC19089,3.82e6,4.19e6,4.30e6
CG18210 (retired record),DRSC19795,2.88e6,3.99e6,2.81e6
Hcs,DRSC12070,3.62e6,4.12e6,4.05e6
Hcs,DRSC12256,3.53e6,3.99e6,4.02e6
CG15475,DRSC02486,3.48e6,3.95e6,3.93e6
CG34434,DRSC18134,3.58e6,3.93e6,4.19e6
CG5466,DRSC15808,2.61e6,3.53e6,3.52e6
CG5466,DRSC23002,3.79e6,4.14e6,4.44e6
Golgin84,DRSC15269,3.61e6,4.14e6,4.04e6
nAChRbeta1,DRSC08097,3.58e6,4.12e6,4.00e6
nAChRbeta1,DRSC08728,3.53e6,3.95e6,4.05e6
CG2065,DRSC06813,3.44e6,3.82e6,4.00e6
CG2065,DRSC21328,3.44e6,3.90e6,3.94e6
mRpL47,DRSC16827,3.81e6,4.25e6,4.20e6
Syx17,DRSC08591,3.54e6,4.06e6,3.97e6
nst,DRSC09755,3.48e6,3.93e6,3.94e6
CG33768,DRSC11715,3.39e6,3.86e6,3.78e6
CG13202,DRSC06326,3.55e6,4.01e6,4.03e6
brv3,DRSC18657,3.52e6,4.10e6,3.89e6
tef,DRSC07301,3.49e6,3.94e6,3.95e6
tef,DRSC22041,3.73e6,4.19e6,4.17e6

Only “viability with MMS, replicate 1”, for 12 of the entries above:
myd [DRSC14762]	3.66e6
myd [DRSC15512]	4.09e6
CG34221 [DRSC06150]	4.02e6
Ids [DRSC08222]	4.03e6
e(y)2 [DRSC19640]	3.97e6
Tim8 [DRSC20291]	3.99e6
PNUTS [DRSC00638]	3.69e6
PNUTS [DRSC22136]	3.97e6
CG14488 [DRSC06460]	4.03e6
v [DRSC20383]	4.37e6
ocn [DRSC17020]	3.93e6
CG18210 (retired record) [DRSC19089]	4.19e6

Next reagents follow:
target,dsRNA,mean viability with MMS,"viability with MMS, replicate 1","viability with MMS, replicate 2"
CG7091,DRSC12944,3.57e6,4.15e6,3.93e6
CG7091,DRSC16197,3.38e6,3.76e6,3.88e6
Nep1,DRSC18388,3.53e6,3.97e6,4.02e6
Nep1,DRSC18389,2.86e6,3.38e6,3.50e6
Skp2 + CG1103,DRSC12160,3.56e6,3.99e6,4.07e6
Skp2 + CG1103,DRSC22356,3.42e6,3.94e6,3.89e6
Cyp301a1,DRSC07365,3.59e6,4.21e6,4.11e6
HERC2,DRSC20566,3.53e6,4.03e6,3.99e6
tst,DRSC14212,3.48e6,4.13e6,3.77e6
rempA,DRSC00327,3.54e6,4.12e6,3.92e6
Mtpalpha,DRSC01994,3.63e6,4.42e6,3.84e6
CG6567 + CG42394,DRSC22241,3.47e6,3.87e6,4.02e6
CG14891,DRSC15013,3.62e6,4.12e6,4.06e6
LKRSDH,DRSC03015,3.53e6,4.05e6,3.94e6
CG15111,DRSC21467,3.30e6,3.80e6,3.83e6
Naa40,DRSC16265,3.69e6,4.24e6,4.10e6
sona,DRSC04089,3.53e6,4.00e6,4.01e6
sona,DRSC04574,3.28e6,3.76e6,3.55e6
sona,DRSC04575,3.43e6,3.92e6,3.84e6
nmo,DRSC08902,3.49e6,3.99e6,3.93e6
nmo,DRSC11377,3.47e6,3.98e6,3.88e6
Cypl,DRSC08362,3.57e6,4.03e6,4.05e6
lectin-21Cb,DRSC00355,3.52e6,3.98e6,4.00e6
Pli,DRSC16792,3.35e6,3.82e6,3.82e6
eIF4H1,DRSC20276,3.47e6,4.00e6,3.85e6
CG15362,DRSC00392,3.49e6,3.92e6,3.99e6
CG9254,DRSC01969,3.57e6,4.16e6,3.93e6
hydra,DRSC20497,3.54e6,4.10e6,3.94e6
Mdr65,DRSC11220,3.50e6,3.69e6,3.65e6
Rdh,DRSC08063,2.99e6,3.55e6,3.55e6
Rdh,DRSC08434,3.29e6,3.48e6,3.52e6
Mvk + CG33672 + spt4,DRSC05356,3.45e6,3.91e6,3.98e6
Mvk + CG33672 + spt4,DRSC06628,3.46e6,3.88e6,3.93e6
CG11178,DRSC19396,3.54e6,4.23e6,3.93e6
CG11396,DRSC11654,3.66e6,4.09e6,4.17e6
Cpr47Ec,DRSC07332,3.56e6,4.05e6,4.06e6
dap,DRSC07601,3.80e6,4.30e6,4.27e6
kra,DRSC12320,3.47e6,3.91e6,3.95e6
nkd,DRSC11376,3.50e6,3.99e6,3.92e6
CG13110,DRSC02208,3.63e6,4.06e6,3.93e6
CG6527,DRSC10659,3.53e6,4.12e6,3.89e6
pio,DRSC04386,3.52e6,4.01e6,3.95e6
CG31741,DRSC02887,3.41e6,3.85e6,3.89e6
CG30470 (retired record),DRSC05553,3.19e6,3.82e6,3.83e6
CG30470 (retired record),DRSC06260,3.19e6,3.90e6,2.77e6
CG30470 (retired record),DRSC06261,3.51e6,4.04e6,3.99e6
CG30470 (retired record),DRSC06777,3.52e6,3.99e6,3.91e6
CG30470 (retired record),DRSC23183,2.99e6,3.27e6,3.32e6
AGBE,DRSC06861,3.14e6,3.68e6,3.62e6
Obp83ef,DRSC12268,3.45e6,3.92e6,3.93e6
CG1688,DRSC05934,3.47e6,4.00e6,3.85e6
CG1688,DRSC23207,3.50e6,4.02e6,3.95e6
